Record: PubChem BioAssay AID1159578 (Peter MacCallum Cancer Centre, 2015)

Screen: 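Genome-wide hunt for genes controlling movement of lymphatic endothelial cells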 (primary screen)
Cell system: human lymphatic endothelial cells
Reagents: siRNA pool against human genes, 40 nM
Time to read-out: 48 h after transfection
Detection: 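High-content imaging of dye-stained cells in a scratch assay measures filled wound area and nuclei per well; duplicate means given as ratio to mock and robust z-score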
Direction: migration robust z-score: higher = faster migration into the scratch; migration relative to mock: higher = more scratch area covered than mock; nuclei per well: higher = more cells in the well
Rule for the call: 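Migration changed when robust z exceeds 2 or falls below -2 and mean nuclei number is at least 3300; otherwise not called changed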
Calls: active = migration changed; inactive = no migration change, or too few cells
The whole screen tested about 18,000 reagents; this is a random part of them. About 1,030 of all reagents (5.7%) were called active. 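Inactive calls also include pools with fewer than 3300 nuclei, whose migration was not assessed.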 The raw values are shown without normalisation. Unmarked entries are inactive.

gene symbol | migration robust z-score | migration class with cell-count check | migration relative to mock | nuclei per well, duplicate mean
NDUFS1 | -0.65 | migration z between -2 and 2; enough cells | 0.68 | 5740
ZUP1 | 0.18 | migration z between -2 and 2; enough cells | 0.93 | 5672
CAMK2N1 | 0.88 | migration z between -2 and 2; enough cells | 0.98 | 5620
CCL18 | 0.35 | migration z between -2 and 2; enough cells | 0.98 | 5796
TGM5 | 0.13 | migration z between -2 and 2; enough cells | 0.83 | 4682
ADAM10 | 0.08 | migration z between -2 and 2; enough cells | 0.82 | 5360
DRC1 | -0.59 | migration z between -2 and 2; enough cells | 0.74 | 5578
CXCL13 | 1.52 | migration z between -2 and 2; enough cells | 1.27 | 5820
ARMC10 | -3.56 (active) | migration z below -2; enough cells | -0.06 | 4196
PSME4 | 0.68 | migration z between -2 and 2; enough cells | 1.06 | 7699
MCTP1 | 0.67 | migration z between -2 and 2; enough cells | 1.05 | 7504
HSPB6 | 0.64 | migration z between -2 and 2; enough cells | 1.05 | 5616
GTF2IRD2B | -0.66 | migration z between -2 and 2; enough cells | 0.71 | 5396
CDKN2AIP | 1.02 | migration z between -2 and 2; enough cells | 1.15 | 6958
DDX39B | 0.86 | migration z between -2 and 2; enough cells | 0.97 | 5262
OLR1 | -0.96 | migration z between -2 and 2; enough cells | 0.62 | 5832
FETUB | 1.37 | migration z between -2 and 2; enough cells | 1.24 | 6042
ATAD3C | -0.71 | migration z between -2 and 2; enough cells | 0.7 | 6579
EML4 | -0.18 | migration z between -2 and 2; enough cells | 0.84 | 6018
DYDC2 | -1.37 | migration z between -2 and 2; enough cells | 0.53 | 6047
STN1 | 1 | migration z between -2 and 2; enough cells | 1.15 | 6692
NDNF | -1.33 | migration z between -2 and 2; enough cells | 0.54 | 5637
PRADC1 | 0.46 | migration z between -2 and 2; enough cells | 0.9 | 5252
CCNB3 | 0.98 | migration z between -2 and 2; enough cells | 1 | 5648
ARHGEF3 | 0.34 | migration z between -2 and 2; enough cells | 0.98 | 5736
ZNF229 | 1.64 | migration z between -2 and 2; enough cells | 1.31 | 4852
ZNF471 | -0.97 | under 3300 nuclei; migration not judged | 0.64 | 3158
NBPF15 | 1.6 | migration z between -2 and 2; enough cells | 1.3 | 6162
MADD | 0.68 | migration z between -2 and 2; enough cells | 0.94 | 5786
AWAT2 | -1.67 | under 3300 nuclei; migration not judged | 0.45 | 3002
USP11 | 0.91 | migration z between -2 and 2; enough cells | 0.98 | 5336
ASB10 | 1.04 | migration z between -2 and 2; enough cells | 1.01 | 5292
SURF2 | 0.46 | migration z between -2 and 2; enough cells | 1 | 5844
SYNPR | 0.6 | migration z between -2 and 2; enough cells | 1.04 | 6214
AQP1 | -0.91 | migration z between -2 and 2; enough cells | 0.63 | 5539
ACO1 | 0.47 | migration z between -2 and 2; enough cells | 0.9 | 5410
OR4A47 | -0.66 | migration z between -2 and 2; enough cells | 0.72 | 5894
GLRA1 | -1.48 | migration z between -2 and 2; enough cells | 0.52 | 4071
TBX1 | 0.5 | migration z between -2 and 2; enough cells | 1.02 | 5246
P2RY1 | 0.7 | migration z between -2 and 2; enough cells | 0.94 | 6456
GRB14 | -0.3 | migration z between -2 and 2; enough cells | 0.8 | 5314
NSMCE3 | -1.44 | migration z between -2 and 2; enough cells | 0.52 | 5286
KLK3 | -1.25 | migration z between -2 and 2; enough cells | 0.56 | 5274
NELL2 | -0.18 | migration z between -2 and 2; enough cells | 0.84 | 5915
N4BP2L2 | -0.22 | migration z between -2 and 2; enough cells | 0.83 | 5758
ASCC3 | 0.26 | migration z between -2 and 2; enough cells | 0.86 | 5575
UNC79 | -0.5 | migration z between -2 and 2; enough cells | 0.76 | 5298
ANXA8L1 | -0.47 | migration z between -2 and 2; enough cells | 0.72 | 5741
METTL18 | -0.72 | migration z between -2 and 2; enough cells | 0.7 | 5601
H3-3B | -0.3 | migration z between -2 and 2; enough cells | 0.81 | 5799
TRIM23 | -1.43 | migration z between -2 and 2; enough cells | 0.53 | 5838
RALGPS2 | 0.23 | migration z between -2 and 2; enough cells | 0.94 | 6313
LAD1 | -1.03 | migration z between -2 and 2; enough cells | 0.62 | 4592
CYLC2 | -0.39 | migration z between -2 and 2; enough cells | 0.78 | 6203
IL10RB | 0.18 | migration z between -2 and 2; enough cells | 0.84 | 6701
KIAA1217 | 0.2 | migration z between -2 and 2; enough cells | 0.94 | 6288
EFHD2 | -2.12 (active) | migration z below -2; enough cells | 0.34 | 4500
HOXB5 | -0.78 | migration z between -2 and 2; enough cells | 0.66 | 7282
KCNQ2 | -2.29 (active) | migration z below -2; enough cells | 0.36 | 3958
ZMYND11 | 0.18 | migration z between -2 and 2; enough cells | 0.84 | 6522
FCRL6 | 0.25 | migration z between -2 and 2; enough cells | 0.94 | 5459
FAM110C | 0.22 | migration z between -2 and 2; enough cells | 0.94 | 5244
KRTAP10-10 | -1.14 | migration z between -2 and 2; enough cells | 0.59 | 5786
FIGNL1 | 0.49 | migration z between -2 and 2; enough cells | 1.01 | 6440
DNAAF6 | -0.2 | migration z between -2 and 2; enough cells | 0.84 | 6517
ADGRG5 | -0.6 | migration z between -2 and 2; enough cells | 0.69 | 5333
OR52W1 | -0.62 | migration z between -2 and 2; enough cells | 0.73 | 5248
FOXJ3 | -0.2 | migration z between -2 and 2; enough cells | 0.76 | 5802
SLC35F2 | 0.48 | migration z between -2 and 2; enough cells | 1.01 | 6647
ZNF16 | -1.18 | migration z between -2 and 2; enough cells | 0.58 | 5800
PDE2A | 0.3 | migration z between -2 and 2; enough cells | 0.96 | 6666
TAFAZZIN | -0.8 | migration z between -2 and 2; enough cells | 0.65 | 6191
OR8B4 | 0.82 | migration z between -2 and 2; enough cells | 1.1 | 6087

Copied from the list.
FOXJ3, migration robust z-score = -0.2
LAD1, migration class with cell-count check = migration z between -2 and 2; enough cells
Entry for CDKN2AIP under “nuclei per well, duplicate mean”: 6958
FETUB, migration relative to mock: 1.24
Result for CAMK2N1 under “migration robust z-score”: 0.88
